Experimental data published in the supplement of paper PMC10849652.
Some of the results follow.

Protein sequences, listed by entry. Tags and fused reporters are not part of them. Lines headed by an entry give the natural chain unless they say otherwise; changes in a name come on top.
UniProt Q6P9G4: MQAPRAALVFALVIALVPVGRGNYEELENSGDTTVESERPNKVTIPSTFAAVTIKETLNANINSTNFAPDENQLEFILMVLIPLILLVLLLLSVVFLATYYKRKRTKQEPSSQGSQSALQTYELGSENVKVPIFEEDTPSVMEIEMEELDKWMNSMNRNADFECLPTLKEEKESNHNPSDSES
UniProt Q1AE95: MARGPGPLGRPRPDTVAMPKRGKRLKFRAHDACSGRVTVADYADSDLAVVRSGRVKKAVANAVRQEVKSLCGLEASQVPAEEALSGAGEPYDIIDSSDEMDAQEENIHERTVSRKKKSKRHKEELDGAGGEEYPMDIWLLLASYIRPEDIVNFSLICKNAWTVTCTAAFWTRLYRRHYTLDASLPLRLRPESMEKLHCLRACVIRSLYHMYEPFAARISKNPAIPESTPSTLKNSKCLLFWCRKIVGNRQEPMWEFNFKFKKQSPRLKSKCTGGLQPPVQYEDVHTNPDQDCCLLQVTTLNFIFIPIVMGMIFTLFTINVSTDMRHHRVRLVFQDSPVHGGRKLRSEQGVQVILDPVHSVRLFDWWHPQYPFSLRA
UniProt Q9BRN9: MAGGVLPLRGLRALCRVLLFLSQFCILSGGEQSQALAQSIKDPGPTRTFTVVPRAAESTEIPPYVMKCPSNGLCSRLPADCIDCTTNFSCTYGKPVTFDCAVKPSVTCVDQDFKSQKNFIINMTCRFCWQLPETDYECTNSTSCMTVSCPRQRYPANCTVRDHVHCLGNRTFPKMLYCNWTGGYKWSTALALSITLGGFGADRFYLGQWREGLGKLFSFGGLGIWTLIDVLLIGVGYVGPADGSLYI
UniProt Q9Y3Q3: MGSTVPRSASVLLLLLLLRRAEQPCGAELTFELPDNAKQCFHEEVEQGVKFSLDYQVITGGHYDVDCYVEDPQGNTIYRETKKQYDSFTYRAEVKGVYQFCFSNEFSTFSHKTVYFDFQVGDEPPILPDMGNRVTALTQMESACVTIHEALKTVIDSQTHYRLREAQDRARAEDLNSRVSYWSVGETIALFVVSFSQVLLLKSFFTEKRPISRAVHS
UniProt Q7Z402: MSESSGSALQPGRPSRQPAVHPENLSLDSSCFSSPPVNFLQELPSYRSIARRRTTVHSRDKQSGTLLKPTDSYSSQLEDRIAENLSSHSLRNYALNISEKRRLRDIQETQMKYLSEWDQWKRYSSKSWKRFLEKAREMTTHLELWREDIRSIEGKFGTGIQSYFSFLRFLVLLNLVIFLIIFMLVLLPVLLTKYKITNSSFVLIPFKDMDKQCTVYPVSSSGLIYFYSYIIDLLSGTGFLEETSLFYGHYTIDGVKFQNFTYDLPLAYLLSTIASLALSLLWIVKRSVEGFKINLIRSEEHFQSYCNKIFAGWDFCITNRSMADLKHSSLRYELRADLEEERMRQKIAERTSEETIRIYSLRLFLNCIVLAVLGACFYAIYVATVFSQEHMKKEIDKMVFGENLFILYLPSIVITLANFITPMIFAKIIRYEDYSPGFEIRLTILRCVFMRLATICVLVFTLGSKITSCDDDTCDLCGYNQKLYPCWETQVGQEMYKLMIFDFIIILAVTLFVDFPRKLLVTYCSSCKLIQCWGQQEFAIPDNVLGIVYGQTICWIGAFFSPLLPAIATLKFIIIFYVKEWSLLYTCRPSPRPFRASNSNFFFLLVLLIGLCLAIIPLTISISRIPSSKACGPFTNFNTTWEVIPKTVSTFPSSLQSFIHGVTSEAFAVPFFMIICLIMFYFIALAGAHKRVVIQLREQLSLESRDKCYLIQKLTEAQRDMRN
UniProt Q9H5L6: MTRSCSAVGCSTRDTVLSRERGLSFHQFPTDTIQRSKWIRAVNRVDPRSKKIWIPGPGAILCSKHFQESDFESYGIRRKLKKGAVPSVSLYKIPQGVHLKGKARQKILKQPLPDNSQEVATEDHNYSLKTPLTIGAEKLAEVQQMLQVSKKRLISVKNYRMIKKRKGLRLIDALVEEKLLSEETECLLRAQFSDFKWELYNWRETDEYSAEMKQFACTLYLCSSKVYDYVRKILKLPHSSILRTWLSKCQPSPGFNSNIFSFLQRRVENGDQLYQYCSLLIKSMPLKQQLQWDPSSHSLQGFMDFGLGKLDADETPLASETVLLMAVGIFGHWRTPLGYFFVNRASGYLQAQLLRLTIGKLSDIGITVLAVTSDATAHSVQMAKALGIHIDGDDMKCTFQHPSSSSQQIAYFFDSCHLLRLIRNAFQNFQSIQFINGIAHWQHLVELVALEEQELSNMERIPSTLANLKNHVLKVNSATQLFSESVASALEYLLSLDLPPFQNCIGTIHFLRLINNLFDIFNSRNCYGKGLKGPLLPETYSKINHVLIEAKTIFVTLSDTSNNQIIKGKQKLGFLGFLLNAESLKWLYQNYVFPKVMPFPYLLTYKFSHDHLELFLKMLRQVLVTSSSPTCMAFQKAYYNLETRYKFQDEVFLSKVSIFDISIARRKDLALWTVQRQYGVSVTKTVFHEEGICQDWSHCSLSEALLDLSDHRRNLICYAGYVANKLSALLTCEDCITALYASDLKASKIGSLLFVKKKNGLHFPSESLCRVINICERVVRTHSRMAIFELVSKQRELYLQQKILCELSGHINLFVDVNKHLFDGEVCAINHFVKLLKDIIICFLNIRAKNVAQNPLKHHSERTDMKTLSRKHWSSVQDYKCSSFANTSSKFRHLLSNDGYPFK
UniProt Q9BVX2: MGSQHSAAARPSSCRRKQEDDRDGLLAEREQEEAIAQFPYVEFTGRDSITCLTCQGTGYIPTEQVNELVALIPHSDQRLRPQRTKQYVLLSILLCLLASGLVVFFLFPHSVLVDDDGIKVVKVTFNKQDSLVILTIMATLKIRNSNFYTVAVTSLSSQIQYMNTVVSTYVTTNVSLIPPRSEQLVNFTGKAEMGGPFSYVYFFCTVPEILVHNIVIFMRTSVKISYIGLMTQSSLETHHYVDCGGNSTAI
UniProt Q9H6X4: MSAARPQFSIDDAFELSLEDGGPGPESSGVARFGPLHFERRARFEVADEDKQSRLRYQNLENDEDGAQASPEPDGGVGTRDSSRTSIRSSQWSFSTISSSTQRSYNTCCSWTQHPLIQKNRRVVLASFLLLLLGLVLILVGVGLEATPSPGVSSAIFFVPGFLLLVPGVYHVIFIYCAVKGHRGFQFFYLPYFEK
UniProt Q8WTV1: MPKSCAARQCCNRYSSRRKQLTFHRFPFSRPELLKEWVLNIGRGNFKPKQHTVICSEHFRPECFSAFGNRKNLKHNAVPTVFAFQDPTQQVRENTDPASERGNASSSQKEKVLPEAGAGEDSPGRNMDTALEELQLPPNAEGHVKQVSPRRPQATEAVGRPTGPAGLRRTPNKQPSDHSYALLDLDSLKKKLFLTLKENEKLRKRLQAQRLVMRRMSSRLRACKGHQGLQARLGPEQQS
UniProt Q96IK0: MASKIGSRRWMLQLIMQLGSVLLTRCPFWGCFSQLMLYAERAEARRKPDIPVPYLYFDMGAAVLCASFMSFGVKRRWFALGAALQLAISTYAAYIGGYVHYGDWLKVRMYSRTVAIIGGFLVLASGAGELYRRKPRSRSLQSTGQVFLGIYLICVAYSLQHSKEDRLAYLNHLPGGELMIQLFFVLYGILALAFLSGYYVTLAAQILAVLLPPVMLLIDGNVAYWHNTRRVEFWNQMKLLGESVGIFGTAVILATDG
UniProt Q7Z6K1, whole entry, looked up: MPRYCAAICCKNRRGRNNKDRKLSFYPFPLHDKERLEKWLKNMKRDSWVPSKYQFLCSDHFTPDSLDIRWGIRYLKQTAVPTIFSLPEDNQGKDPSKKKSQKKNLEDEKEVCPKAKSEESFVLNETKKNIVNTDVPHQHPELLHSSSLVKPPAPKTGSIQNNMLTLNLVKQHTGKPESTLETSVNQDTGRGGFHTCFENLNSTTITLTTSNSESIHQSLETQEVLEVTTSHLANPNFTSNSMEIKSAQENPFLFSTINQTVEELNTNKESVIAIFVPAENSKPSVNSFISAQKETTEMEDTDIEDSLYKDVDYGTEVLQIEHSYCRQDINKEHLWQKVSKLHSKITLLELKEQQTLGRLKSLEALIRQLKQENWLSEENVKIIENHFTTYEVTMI
UniProt Q9Y519: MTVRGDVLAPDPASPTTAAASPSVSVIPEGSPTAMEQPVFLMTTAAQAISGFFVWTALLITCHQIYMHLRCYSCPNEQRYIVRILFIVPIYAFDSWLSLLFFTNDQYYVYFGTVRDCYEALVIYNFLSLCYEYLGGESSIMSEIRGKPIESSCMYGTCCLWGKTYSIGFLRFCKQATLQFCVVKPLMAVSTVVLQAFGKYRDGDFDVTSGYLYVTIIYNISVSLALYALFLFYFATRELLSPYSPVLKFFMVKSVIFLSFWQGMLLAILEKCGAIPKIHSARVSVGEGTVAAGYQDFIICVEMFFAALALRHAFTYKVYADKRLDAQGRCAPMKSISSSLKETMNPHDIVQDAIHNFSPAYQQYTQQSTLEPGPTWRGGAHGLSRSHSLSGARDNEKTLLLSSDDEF
UniProt Q04726: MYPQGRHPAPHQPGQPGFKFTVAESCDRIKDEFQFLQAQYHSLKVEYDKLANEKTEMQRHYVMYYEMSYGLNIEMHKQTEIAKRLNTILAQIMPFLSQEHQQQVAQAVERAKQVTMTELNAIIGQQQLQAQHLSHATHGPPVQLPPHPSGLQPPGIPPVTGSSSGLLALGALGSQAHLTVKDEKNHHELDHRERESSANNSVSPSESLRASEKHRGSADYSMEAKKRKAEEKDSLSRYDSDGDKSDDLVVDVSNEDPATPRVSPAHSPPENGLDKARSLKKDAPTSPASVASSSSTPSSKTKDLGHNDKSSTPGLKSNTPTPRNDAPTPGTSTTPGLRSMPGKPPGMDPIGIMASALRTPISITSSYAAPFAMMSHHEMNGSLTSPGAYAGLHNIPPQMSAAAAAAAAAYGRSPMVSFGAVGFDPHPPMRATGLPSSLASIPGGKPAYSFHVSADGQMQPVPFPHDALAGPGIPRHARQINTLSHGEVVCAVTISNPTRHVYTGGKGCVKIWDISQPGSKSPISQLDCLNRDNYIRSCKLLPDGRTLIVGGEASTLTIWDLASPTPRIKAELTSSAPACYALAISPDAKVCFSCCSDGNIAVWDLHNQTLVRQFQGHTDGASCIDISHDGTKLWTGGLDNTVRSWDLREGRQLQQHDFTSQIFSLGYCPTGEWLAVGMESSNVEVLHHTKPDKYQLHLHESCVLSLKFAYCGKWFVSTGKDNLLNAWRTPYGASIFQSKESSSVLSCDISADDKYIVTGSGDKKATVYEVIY
UniProt Q24JP5: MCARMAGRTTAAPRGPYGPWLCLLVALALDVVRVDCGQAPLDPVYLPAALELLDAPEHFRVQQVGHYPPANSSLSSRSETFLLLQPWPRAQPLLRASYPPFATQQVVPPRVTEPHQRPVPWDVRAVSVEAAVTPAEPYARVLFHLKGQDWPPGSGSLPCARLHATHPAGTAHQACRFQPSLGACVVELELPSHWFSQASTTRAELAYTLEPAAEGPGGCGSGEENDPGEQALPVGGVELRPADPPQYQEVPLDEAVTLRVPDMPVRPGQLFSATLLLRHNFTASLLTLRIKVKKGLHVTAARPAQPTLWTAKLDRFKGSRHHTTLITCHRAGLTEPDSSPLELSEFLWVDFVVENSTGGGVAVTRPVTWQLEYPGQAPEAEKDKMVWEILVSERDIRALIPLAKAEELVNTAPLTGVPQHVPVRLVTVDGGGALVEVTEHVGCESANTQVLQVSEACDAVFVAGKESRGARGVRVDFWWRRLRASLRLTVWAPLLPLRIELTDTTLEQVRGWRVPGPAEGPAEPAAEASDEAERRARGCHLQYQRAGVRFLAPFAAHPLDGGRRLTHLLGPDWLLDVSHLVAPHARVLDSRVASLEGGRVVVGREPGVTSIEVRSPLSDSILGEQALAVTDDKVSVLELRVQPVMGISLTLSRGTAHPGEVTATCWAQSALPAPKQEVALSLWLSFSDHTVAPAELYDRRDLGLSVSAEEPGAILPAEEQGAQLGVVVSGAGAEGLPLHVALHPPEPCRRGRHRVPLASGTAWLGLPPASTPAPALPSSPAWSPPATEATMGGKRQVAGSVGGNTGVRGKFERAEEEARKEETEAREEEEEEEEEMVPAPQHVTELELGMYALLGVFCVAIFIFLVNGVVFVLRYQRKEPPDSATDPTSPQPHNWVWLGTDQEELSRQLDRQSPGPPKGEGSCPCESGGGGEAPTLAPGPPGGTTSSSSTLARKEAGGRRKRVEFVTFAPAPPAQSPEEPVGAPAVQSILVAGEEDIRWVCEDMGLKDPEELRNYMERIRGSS

Key:
Assay in all cases: log2 fold change, soluble protein after heating vs DMSO (PISA); higher = thermal stabilisation; K562 lysate, 10 uM; active = over 0.2 and 3.5 SD of the protein, either way, in both replicates (recomputed)
[1] = compound: C1=CC=C(C=C1)C2=NC(=C(N2)C3=CC=NC=C3)C4=CC(=C(C=C4)Cl)O
How it was run: (§1)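 A 30 min treatment with 10 μM compound was applied to crude K562 extract at 1 mg/mL protein in PBS pH 7.4 with 1 mM MgCl2. Heating for 3 min spanned 48°C-58°C, after which aliquots were pooled, adjusted to 0.5% NP-40 at 4°C and spun at 21,000xg for 90 min. TMTpro 16plex LC-MS/MS of the supernatant, with channel sums equalised, gave values recorded as log-two fold change in thermal stability against solvent controls, from duplicates.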

[2] = compound: C1CCN(C1)C(=O)NC2=CC=CC(=C2)NC3=NC=C(C(=N3)NCCC4=CN=CN4)Br
How it was run: as §1

[3] = compound: C1CN(CCC1(CC2=CC=C(C=C2)Cl)N)C3=NC=NC4=C3C=CN4
How it was run: as §1

[4] = compound: C1COCCN1CCN2C3=CC=CC=C3N=C2NC(=O)C4=CC(=CC=C4)[N+](=O)[O-] [IRAK-1-4 Inhibitor I]
How it was run: as §1

[5] = compound: CC(C)(C)Cn1c(N)nc2ccc(-c3[nH]c(C(C)(C)C)nc3-c3ccc(F)cc3)nc21 [ralimetinib]
How it was run: as §1

[6] = compound: CC(C)(O)CC(=O)NCCn1ccc2ncnc(Nc3ccc(Oc4cccc(C(F)(F)F)c4)c(Cl)c3)c21
How it was run: as §1

[7] = compound: CC1=C(C2=C(C=C1)C(=O)C3=CC=CC=C3N2CCCN)C
How it was run: as §1

[8] = compound: CC1=C(C=C(C=C1)NC(=O)C2=CC(=CC=C2)C(C)(C)C#N)NC3=CC4=C(C=C3)N=CN(C4=O)C
How it was run: as §1

[9] = compound: CC1=C(C=C(C=C1)NC(=O)C2=CC(=CC=C2)N(C)C)NC(=O)C3=CC=C(C=C3)O
How it was run: as §1

[10] = compound: C#Cc1cccc(Nc2ncnc3cc(OCCOC)c(OCCOC)cc23)c1 [erlotinib]
How it was run: as §1

[11] = compound: C1=CC(=CC=C1C2=NC3=C(N2)C=C(C=C3)C(=O)N)OC4=CC=C(C=C4)Cl
How it was run: as §1

[12] = compound: CC(C)C1=C2N=C(C=C(N2N=C1)NCC3=CC=CC=C3)NCCCCCCN
How it was run: as §1

[13] = compound: C/C(=N\NC(=O)C1=CC(=CC=C1)S(=O)(=O)N2CCOCC2)/C3=C(C=CC(=C3)Cl)O
How it was run: as §1

[14] = compound: C1=CC2=C(C=CC(=C2)/C=C\3/C(=O)NC(=NCC4=CC=CS4)S3)N=C1
How it was run: as §1

[15] = compound: C1=CC=C2C(=C1)C3=NNC4=CC=CC(=C43)C2=O
How it was run: as §1

[16] = compound: CC(=O)c1cnc2ccc(-c3cc(Cl)c(O)c(Cl)c3)nc2c1N[C@H]1CC[C@H](CN(C)C)CC1
How it was run: as §1

[17] = compound: CC1=C(C(CC(=O)N1)C2=CC=C(C=C2)C(F)(F)F)C(=O)NC3=C(C=C4C(=C3)C=NN4)F
How it was run: as §1

[18] = compound: CC1=CC=C(C=C1)SC2=C3C=C(SC3=CN=C2)C(=O)N
How it was run: as §1

[19] = compound: C1=CC2=NC=CN=C2C=C1/C=C/3\C(=O)NC(=O)S3
How it was run: as §1

[20] = compound: C=CC(=O)N1CCC[C@@H](n2nc(-c3ccc(Oc4ccccc4)cc3)c3c(N)ncnc32)C1 [ibrutinib]
How it was run: as §1

Measured: log2 fold change

TMEM154 (UniProt Q6P9G4)
inactive: [1] 0.01 | [2] -0.096 | [3] 0.108 | [4] 0.019 | [5] -0.079 | [6] 0.164 | [7] 0.048 | [8] -0.052 | [9] 0.172

TMEM129
inactive: [10] 0.05 | [11] -0.018 | [12] 0.089

TMEM183B (UniProt Q1AE95)
inactive: [13] 0.213 | [14] 0.065 | [1] 0.076 | [15] -0.221 | [4] -0.033 | [5] -0.18 | [6] 0.143 | [9] -0.25

TKT, A0A0B4J1R6
inactive: [10] -0.117 | [11] -0.095 | [1] -0.035 | [4] 0.118 | [16] -0.047 | [5] 0.107 | [6] -0.186 | [12] -0.073 | [17] -0.067 | [7] -0.045 | [8] -0.084 | [9] -0.109 | [18] -0.042

TM2D3 (UniProt Q9BRN9)
inactive: [10] 0.104 | [11] -0.083 | [19] -0.068 | [1] 0.205 | [2] 0.153 | [3] 0.088 | [4] 0.148 | [20] 0.02 | [5] -0.14 | [6] -0.157 | [12] -0.201 | [9] 0.07

Reprinted from the results shown (4 entries):
TMEM154 (UniProt Q6P9G4)
inactive: [1] 0.01 | [2] -0.096 | [3] 0.108 | [4] 0.019 | [5] -0.079 | [6] 0.164 | [7] 0.048 | [8] -0.052 | [9] 0.172

TMEM129
inactive: [10] 0.05 | [11] -0.018 | [12] 0.089

TMEM183B (UniProt Q1AE95)
inactive: [13] 0.213 | [14] 0.065 | [1] 0.076 | [15] -0.221 | [4] -0.033 | [5] -0.18 | [6] 0.143 | [9] -0.25

TKT, A0A0B4J1R6
inactive: [10] -0.117 | [11] -0.095 | [1] -0.035 | [4] 0.118 | [16] -0.047 | [5] 0.107 | [6] -0.186 | [12] -0.073 | [17] -0.067 | [7] -0.045 | [8] -0.084 | [9] -0.109 | [18] -0.042

Next records follow:

TMED3 (UniProt Q9Y3Q3)
inactive: [10] 0.05 | [11] -0.09 | [19] -0.011 | [1] -0.069 | [4] 0.113 | [20] -0.062 | [16] 0.03 | [5] 0.132 | [6] -0.047 | [12] -0.025 | [8] 0.027 | [9] -0.053 | [18] 0.12

TMC7 (UniProt Q7Z402)
inactive: [10] -0.425 | [11] 0.408 | [12] -0.116

THAP9 (UniProt Q9H5L6)
inactive: [13] 0.019 | [14] -0.015 | [19] 0.01 | [1] 0.028 | [15] -0.042 | [2] -0.092 | [3] 0.098 | [4] 0.145 | [20] 0.038 | [16] -0.061 | [5] -0.168 | [6] -0.332 | [7] -0.199 | [8] 0.234 | [9] 0.017 | [18] -0.087

TMEM106C (UniProt Q9BVX2)
inactive: [10] -0.257 | [11] 0.052 | [19] 0.026 | [2] 0.039 | [3] 0.035 | [20] -0.057 | [12] -0.018

TMEM134 (UniProt Q9H6X4)
inactive: [10] 0.067 | [11] -0.042 | [1] 0.083 | [4] -0.064 | [16] 0.051 | [5] -0.019 | [6] -0.086 | [12] 0.036 | [7] -0.038 | [8] 0.068 | [9] 0.055 | [18] 0.097

THAP3 (UniProt Q8WTV1)
inactive: [10] -0.051 | [11] 0.026 | [1] -0.08 | [4] -0.017 | [5] -0.01 | [6] 0.099 | [12] -0.084 | [17] 0.039 | [8] 0.046 | [9] 0.069

TMEM101 (UniProt Q96IK0)
inactive: [10] -0.065 | [11] -0.011 | [19] 0.094 | [1] 0.004 | [2] -0.069 | [3] 0.123 | [4] -0.012 | [20] -0.07 | [16] 0.102 | [5] 0.034 | [6] -0.139 | [12] -0.042 | [17] 0.022 | [7] -0.011 | [8] 0.108 | [9] -0.02 | [18] -0.073

THAP5 (UniProt Q7Z6K1)
inactive: [7] 0.031

TICRR (UniProt Q7Z2Z1)
inactive: [7] 0.049

TGFBR1 isoform 2 (UniProt P36897)
inactive: [10] 0.042 | [11] -0.069 | [2] 0.14 | [3] -0.102 | [12] -0.032 | [7] -0.043

TMEM184B (UniProt Q9Y519)
inactive: [1] 0.021 | [4] -0.009 | [5] 0.046 | [6] -0.034 | [7] -0.058 | [8] -0.039 | [9] 0.023

TGFBR2 isoform 2 (UniProt P37173)
inactive: [10] 0.101 | [11] -0.195 | [1] 0.026 | [2] -0.185 | [3] -0.06 | [4] 0.095 | [5] -0.163 | [6] -0.4 | [12] 0.075 | [7] 0.057 | [9] -0.466

TLE3 isoform 5 (UniProt Q04726)
inactive: [10] 0.036 | [11] -0.068 | [19] 0.237 | [1] 0.06 | [2] -0.068 | [3] 0.01 | [4] -0.021 | [20] 0.045 | [16] -0.022 | [5] -0.027 | [6] -0.077 | [12] -0.061 | [17] 0.138 | [7] -0.053 | [8] 0.093 | [9] 0.018 | [18] -0.035

TMEM132A isoform 2 (UniProt Q24JP5)
inactive: [10] -0.031 | [11] -0.009 | [1] -0.064 | [2] 0.042 | [3] 0.068 | [4] 0.101 | [16] 0.676 | [5] 0.065 | [6] -0.194 | [12] 0.03 | [8] 0.05 | [9] 0.015 | [18] 0.019
